Source: PubChem BioAssay AID493014 (National Center for Advancing Translational Sciences (NCATS), 2011)
Some of the results follow. Shown are side measurements of this screen, not its main read-out; they come without a call. Compounds called inactive in the main read-out are mostly missing here. Words in brackets tell the shape of the fitted curve; partial curves, single points and poor fits give uncertain potencies.

Experiment: qHTS Assay to Find Inhibitors of Chronic Active B-Cell Receptor Signaling
Settings: ABC-DLBCL IkBa-CBG/CBR reporter, luminescence ratio (green luciferase fused to IkBa over red control in TMD8 lymphoma cells), 4 h
Procedure, shortened: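 Concentration-response series (up to 46 uM) were applied to TMD8 dual-reporter cells for 4 h at 37C with doxycycline. Green/red ratio, after filter-overlap correction, defined %Activity; red signal alone was normalised to basal cells and zero luminescence.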

[1] = measured here: CBR red luminescence, cell number
[2] = measured here: IkBa-CBG green luminescence

Row | SMILES | AC50 [1] | AC50 [2]
1 | Cc1ccc(S(=O)(=O)c2ccc(Oc3ccccc3)cc2)cc1 | 28.2 µM [falling, single point] | 35.5 µM [rising, partial curve, poor fit]
2 | O=C(CSc1nnnn1-c1ccccc1)Nc1ncc2c(n1)CC(c1ccco1)CC2=O (stereo not drawn) | 25.1 µM [falling, single point] | 
3 | NC(=O)CCCc1nc(-c2ccccc2)no1 | 8.91 µM [rising, partial curve] | 
4 | CCOC(=O)N1CCN(C(=O)c2cccn3c(=O)c4c5c(sc4nc23)CCCC5)CC1 | 6.31 µM [rising, full curve] | 
5 | CC1Cc2cc(/C(O)=C3\C(=O)C(=O)N(CCN(C)C)C3c3ccccc3F)ccc2O1 (stereo not drawn) | 3.66 µM [rising, single point] | 
6 | CNC(=O)c1ccc2nc(NC(C)=O)sc2c1 | 18.4 µM [rising, single point] | 
7 | COc1cc(C(=O)NCCc2nc3ccccc3n2C)cc(OC)c1OC | 23.1 µM [falling, single point] | 
8 | Nc1[nH]nc2nc(N3CCOCC3)nc(-c3ccccc3)c12 | 22.4 µM [falling, single point] | 
9 | COc1ccc2oc(-c3ccc(C)c(NC(=O)CSc4ccc(Cl)cc4)c3)nc2c1 | 39.8 µM [rising, partial curve, poor fit] | 
10 | Cc1nnc(SCC(=O)Nc2ccc3c(c2)OCCO3)n1N | 1.16 µM [rising, full curve, poor fit] | 
11 | CCOc1cc(C2C(C(=O)OC)=C(C)NC3=C2C(=O)c2ccccc23)c(Br)cc1O (stereo not drawn) | 11.2 µM [falling, single point] | 
12 | COCC(=O)N1CCC(Oc2ccc(C(=O)N3C[C@@H]4CCC[C@H]3C4)cc2)CC1 | 3.55 µM [falling, single point] | 
13 | Cn1nc(C(=O)OCC(=O)Nc2cc(Cl)ccc2C#N)c2ccccc2c1=O | 23.1 µM [rising, partial curve, poor fit] | 
14 | C/C(=N\OC(=O)c1ccc(C)cc1)c1sc(C)nc1C | 25.9 µM [rising, single point] | 
15 | CCN(CC)S(=O)(=O)c1ccc(NC(=O)c2cnccn2)cc1 | 22.4 µM [rising, single point] | 
16 | CC(=O)N(c1nnc(-c2ccc(C)cc2)s1)C1CCCC1 | 5.01 µM [rising, full curve, poor fit] | 
17 | COc1cc(C(=O)NCCNc2nc3ccc(C)cc3cc2C#N)cc(OC)c1OC | 2.51 µM [rising, full curve, poor fit] | 
18 | CN(C)c1ccc(N2C(=NC(=O)c3ccccc3)SC3CS(=O)(=O)CC32)cc1 (stereo not drawn) | 22.4 µM [falling, single point] | 
19 | O=c1[nH]c(CSc2nnc(Cc3ccccc3)o2)nc2ccccc12 | 0.562 µM [falling, full curve] | 
20 | CCCCCCCn1c(NC(=O)CC)nc2ccccc21 | 35.5 µM [rising, single point] | 22.4 µM [falling, single point]

Taken from above.
AC50 [1], `C/C(=N\OC(=O)c1ccc(C)cc1)c1sc(C)nc1C` reads 25.9 µM [rising, single point]
AC50 [1], `COc1cc(C(=O)NCCc2nc3ccccc3n2C)cc(OC)c1OC` reads 23.1 µM [falling, single point]

(more compounds)

Row | SMILES | AC50 [1] | AC50 [2]
21 | O=C(NC(=S)Nc1ccc2oc(-c3ccncc3)nc2c1)c1ccccc1F | 4.47 µM [falling, partial curve] | 
22 | CC(C)CCn1c(SCC(=O)N2CC(=O)Nc3ccccc32)nc2scc(-c3cccs3)c2c1=O | 14.6 µM [rising, partial curve, poor fit] | 
23 | O=C(COc1ccccc1)Nc1cc(S(=O)(=O)N2CCOCC2)ccc1N1CCCC1 | 29.1 µM [falling, single point] | 
24 | C/C(=N\Nc1ccc([N+](=O)[O-])cc1)c1cc2ccccc2o1 | 2.24 µM [rising, partial curve, poor fit] | 
25 | O=C1[C@H]2[C@@H](c3ccc(F)cc3)N3C(=O)N(c4ccccc4)C(=O)[C@@]3(Cc3ccccc3)[C@H]2C(=O)N1C1CCCCC1 | 0.58 µM [rising, full curve, poor fit] | 
26 | Cc1cc(N2CCOCC2)nc2ccc(NC(=O)CCC(=O)N3CCN(c4cccc(C(F)(F)F)c4)CC3)cc12 | 35.5 µM [falling, single point] | 
27 | CC1(C)CC(=O)C=C(/C=C/c2ccccc2)C1 | 0.326 µM [rising, full curve, poor fit] | 
28 | Clc1ccc(-c2n[nH]c3c2CCC3)cc1Cl | 0.1 µM [rising, full curve, poor fit] | 
29 | CCNc1nc(NCC)n2c(SC(C(=O)Nc3cc(C)ccc3OC)c3ccccc3)nnc2n1 (stereo not drawn) | 18.4 µM [falling, single point] | 
30 | CC12CCC(C(=O)Nc3cccc(Cl)c3Cl)([C@H](Br)C1=O)C2(C)C (stereo partly drawn) | 35.5 µM [rising, single point] | 
31 | CC(C1CC2CCC1C2)n1c(-c2cccs2)n[nH]c1=S (stereo not drawn) | 35.5 µM [rising, single point] | 
32 | O=C(c1ccccc1)C1Oc2ccccc2C2CC(c3cccs3)=NN12 (stereo not drawn) | 20 µM [rising, single point] | 
33 | CCCCNC(=O)CSc1cc(=O)n(C)c2ccccc12 | 16.4 µM [rising, partial curve, poor fit] | 
34 | COc1cc2c(cc1OC)CN(C(=O)CC1CC3CCC1C3)CC2 (stereo not drawn) | 2.51 µM [rising, full curve] | 
35 | N#Cc1ccc(C(=O)NCC(c2ccco2)N2CCCC2)cc1 (stereo not drawn) | 0.1 µM [rising, full curve, poor fit] | 
36 | CCOc1cccc(C(=O)Nc2ccc3oc(Cc4ccc(Cl)cc4)nc3c2)c1 | 18.4 µM [falling, single point] | 25.9 µM [rising, partial curve, poor fit]
37 | O=C(CSc1nnc(NC2CC2)s1)NN1C(=O)NC2(CCCCC2)C1=O | 16.4 µM [rising, single point] | 
38 | Cc1ccc(Cn2ncc(Cl)c(Cl)c2=O)cc1 | 11.6 µM [falling, partial curve] | 
39 | C=CCNc1nc2ccccc2nc1NS(=O)(=O)c1cccc(C)c1 | 15.8 µM [falling, partial curve, poor fit] | 
40 | COC(=O)C(O)(CC(=O)Nc1ccccc1OC)C(F)(F)F (stereo not drawn) | 13 µM [falling, partial curve, poor fit] | 
